No constants are given. Whether binding was seen depends on the method and setting. For some of these results: Binding seen in cells or lysates may run through a third protein. Some results given as binding are weak or reduced against the parent protein; the word gives no strength. Sequences can lack the tags named with a protein.

In experiment [1] the target is T1, BON1-VWA-BD (Arabidopsis thaliana) (UniProt Q941L3).
T1 sequence: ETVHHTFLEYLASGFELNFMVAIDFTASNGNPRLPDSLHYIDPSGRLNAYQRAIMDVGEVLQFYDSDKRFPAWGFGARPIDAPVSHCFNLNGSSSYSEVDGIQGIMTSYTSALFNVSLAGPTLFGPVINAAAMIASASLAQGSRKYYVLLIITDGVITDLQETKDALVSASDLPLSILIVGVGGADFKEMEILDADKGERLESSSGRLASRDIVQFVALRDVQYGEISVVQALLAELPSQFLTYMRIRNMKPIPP
Put plainly: two-hybrid; yeast two-hybrid, pGADT7 (AD) and pGBKT7 (BD) constructs co-transformed into AH109; growth on SD-Ade-Trp-Leu-His, photographed after three days.

For experiment [2], the target named is T2, BON2-VWA-BD (Arabidopsis thaliana) (UniProt Q5S1W2).
T2 sequence: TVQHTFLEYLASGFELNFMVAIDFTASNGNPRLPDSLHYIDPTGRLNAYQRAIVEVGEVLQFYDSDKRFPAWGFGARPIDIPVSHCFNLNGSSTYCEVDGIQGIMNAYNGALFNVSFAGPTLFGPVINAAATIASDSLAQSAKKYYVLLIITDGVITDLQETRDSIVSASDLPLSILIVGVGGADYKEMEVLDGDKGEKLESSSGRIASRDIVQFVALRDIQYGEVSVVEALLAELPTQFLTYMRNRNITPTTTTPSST
Described as above.

In experiment [3] the target is T3, BON3-VWA-BD (Arabidopsis thaliana) (UniProt Q5XQC7).
T3 sequence: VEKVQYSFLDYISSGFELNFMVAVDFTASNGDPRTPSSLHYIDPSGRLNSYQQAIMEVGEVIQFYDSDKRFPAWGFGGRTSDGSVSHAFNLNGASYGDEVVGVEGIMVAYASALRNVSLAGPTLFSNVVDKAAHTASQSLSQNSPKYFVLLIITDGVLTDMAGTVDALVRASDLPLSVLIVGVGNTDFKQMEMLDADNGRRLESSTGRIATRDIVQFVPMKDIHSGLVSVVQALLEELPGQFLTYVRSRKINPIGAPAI
The experiment is described as above.

Experiment [4] deals with T4, BON2-NLuc (Arabidopsis thaliana) (UniProt Q5S1W2).
T4 sequence: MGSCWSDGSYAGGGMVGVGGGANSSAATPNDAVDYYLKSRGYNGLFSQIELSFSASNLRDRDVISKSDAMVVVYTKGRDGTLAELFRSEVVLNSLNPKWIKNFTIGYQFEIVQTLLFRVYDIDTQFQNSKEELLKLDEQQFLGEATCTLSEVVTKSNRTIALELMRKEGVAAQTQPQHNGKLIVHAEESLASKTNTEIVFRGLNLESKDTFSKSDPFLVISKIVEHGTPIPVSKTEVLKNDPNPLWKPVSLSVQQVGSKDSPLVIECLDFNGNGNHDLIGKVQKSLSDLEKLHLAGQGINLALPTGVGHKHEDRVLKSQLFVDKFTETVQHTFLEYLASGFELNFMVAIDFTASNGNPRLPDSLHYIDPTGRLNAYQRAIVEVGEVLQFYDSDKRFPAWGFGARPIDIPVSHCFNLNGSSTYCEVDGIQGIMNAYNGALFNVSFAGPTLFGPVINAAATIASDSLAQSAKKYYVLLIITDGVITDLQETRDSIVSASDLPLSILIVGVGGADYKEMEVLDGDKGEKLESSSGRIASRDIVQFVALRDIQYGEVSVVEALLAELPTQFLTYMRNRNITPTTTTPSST
Put plainly: split reporter; split-LUC (firefly luciferase halves NLuc and CLuc) co-expressed by Agrobacterium infiltration in Nicotiana benthamiana leaves; 1 mM luciferin, luminescence imaging, 3 min exposure.

In experiment [5] the target is T5, BON3-NLuc (Arabidopsis thaliana) (UniProt Q5XQC7).
T5 sequence: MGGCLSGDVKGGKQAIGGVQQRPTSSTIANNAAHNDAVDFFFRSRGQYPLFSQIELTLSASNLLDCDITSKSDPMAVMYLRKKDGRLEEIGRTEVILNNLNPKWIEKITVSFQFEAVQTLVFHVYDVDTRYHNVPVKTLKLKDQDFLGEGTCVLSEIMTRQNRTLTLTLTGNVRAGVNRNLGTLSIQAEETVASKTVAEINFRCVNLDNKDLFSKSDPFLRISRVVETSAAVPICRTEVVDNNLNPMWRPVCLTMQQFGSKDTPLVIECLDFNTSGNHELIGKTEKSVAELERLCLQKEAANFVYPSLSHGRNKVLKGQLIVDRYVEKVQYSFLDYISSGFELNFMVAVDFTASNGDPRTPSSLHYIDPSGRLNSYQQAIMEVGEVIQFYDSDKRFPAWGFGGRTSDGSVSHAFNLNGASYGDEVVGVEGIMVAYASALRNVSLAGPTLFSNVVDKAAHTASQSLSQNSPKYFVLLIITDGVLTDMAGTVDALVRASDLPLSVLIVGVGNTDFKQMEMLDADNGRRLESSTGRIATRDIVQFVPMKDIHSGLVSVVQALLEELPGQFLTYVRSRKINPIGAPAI
The experiment is described as above.

Experiment [6] deals with T6, BON1-NLuc (Arabidopsis thaliana) (UniProt Q941L3).
T6 sequence: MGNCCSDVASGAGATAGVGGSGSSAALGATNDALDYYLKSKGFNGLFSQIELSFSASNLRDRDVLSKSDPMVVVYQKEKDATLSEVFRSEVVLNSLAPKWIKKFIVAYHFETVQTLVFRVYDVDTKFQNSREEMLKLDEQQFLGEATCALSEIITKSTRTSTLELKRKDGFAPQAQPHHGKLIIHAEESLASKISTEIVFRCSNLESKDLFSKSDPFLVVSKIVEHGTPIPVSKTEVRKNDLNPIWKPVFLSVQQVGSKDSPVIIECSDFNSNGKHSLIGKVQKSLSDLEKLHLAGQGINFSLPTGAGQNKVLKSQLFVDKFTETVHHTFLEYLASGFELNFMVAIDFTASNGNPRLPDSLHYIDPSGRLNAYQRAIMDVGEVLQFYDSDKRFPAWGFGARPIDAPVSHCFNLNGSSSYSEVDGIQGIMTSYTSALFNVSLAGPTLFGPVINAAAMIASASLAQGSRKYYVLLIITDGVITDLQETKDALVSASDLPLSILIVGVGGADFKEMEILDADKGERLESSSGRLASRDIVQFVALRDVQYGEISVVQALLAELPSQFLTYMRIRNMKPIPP
Described as above.

For experiment [7], the target named is T7, BON2-CLuc (Arabidopsis thaliana) (UniProt Q5S1W2).
T7 sequence: T4 sequence
Described as above.

Experiment [8] addresses T8, BON3-CLuc (Arabidopsis thaliana) (UniProt Q5XQC7).
T8 sequence: T5 sequence
The description is as above.

B1: ACA10-I-AD (domain or fragment, UniProt Q9SZR1 1-72)
chain: MSGQFNNSPRGEDKDVEAGTSSFTEYEDSPFDIASTKNAPVERLRRWRQAALVLNASRRFRYTLDLKREEDK
With B1, the binding entry in experiment [1], in experiment [2] and in experiment [3] was “binds” in each case.

B2: ACA10-I-CLuc (domain or fragment, UniProt Q9SZR1 1-72)
chain: B1 chain
Regarding B2, the binding result in experiment [4] and in experiment [5] was “binds” each time.

B3: segment I of ACA9 in pGADT7 (domain or fragment, UniProt Q9LU41 1-101)
chain: MSTSSSNGLLLTSMSGRHDDMEAGSAKTEEHSDHEELQHDPDDPFDIDNTKNASVESLRRWRQAALVLNASRRFRYTLDLNKEEHYDNRRRMIRAHAQVIR
With B3, the binding result in experiment [1], in experiment [2] and in experiment [3] was “binds” in each case.

B4: ACA9-I-CLuc (domain or fragment, UniProt Q9LU41 1-101)
chain: B3 chain
As for B4, the binding entry in experiment [6] is “binds”.

B5: ACA9-I-NLuc (domain or fragment, UniProt Q9LU41 1-101)
chain: B3 chain
Turning to B5, the binding entry in experiment [7] and in experiment [8] was “binds” throughout.

B6: ACA8-I-CLuc (domain or fragment, UniProt Q9LF79 1-106)
chain: MTSLLKSSPGRRRGGDVESGKSEHADSDSDTFYIPSKNASIERLQQWRKAALVLNASRRFRYTLDLKKEQETREMRQKIRSHAHALLAANRFMDMGRESGVEKTTG
Take B6: the binding result in experiment [4] and in experiment [5] was “binds” in each case.

B7: ACA8-I-AD (domain or fragment, UniProt Q9LF79 1-106)
chain: B6 chain
Consider B7, for which the binding entry in experiment [1], in experiment [2] and in experiment [3] was “binds” in each case.

These data come from PMC6032332.
